Here are results for 2 substances from article doi:10.1101/2020.12.08.415711.

Protein sequences, listed by entry. Tags and fused reporters are not part of them. Lines headed by an entry give the natural chain unless they say otherwise; changes in a name come on top.
UniProt Q9SXA1: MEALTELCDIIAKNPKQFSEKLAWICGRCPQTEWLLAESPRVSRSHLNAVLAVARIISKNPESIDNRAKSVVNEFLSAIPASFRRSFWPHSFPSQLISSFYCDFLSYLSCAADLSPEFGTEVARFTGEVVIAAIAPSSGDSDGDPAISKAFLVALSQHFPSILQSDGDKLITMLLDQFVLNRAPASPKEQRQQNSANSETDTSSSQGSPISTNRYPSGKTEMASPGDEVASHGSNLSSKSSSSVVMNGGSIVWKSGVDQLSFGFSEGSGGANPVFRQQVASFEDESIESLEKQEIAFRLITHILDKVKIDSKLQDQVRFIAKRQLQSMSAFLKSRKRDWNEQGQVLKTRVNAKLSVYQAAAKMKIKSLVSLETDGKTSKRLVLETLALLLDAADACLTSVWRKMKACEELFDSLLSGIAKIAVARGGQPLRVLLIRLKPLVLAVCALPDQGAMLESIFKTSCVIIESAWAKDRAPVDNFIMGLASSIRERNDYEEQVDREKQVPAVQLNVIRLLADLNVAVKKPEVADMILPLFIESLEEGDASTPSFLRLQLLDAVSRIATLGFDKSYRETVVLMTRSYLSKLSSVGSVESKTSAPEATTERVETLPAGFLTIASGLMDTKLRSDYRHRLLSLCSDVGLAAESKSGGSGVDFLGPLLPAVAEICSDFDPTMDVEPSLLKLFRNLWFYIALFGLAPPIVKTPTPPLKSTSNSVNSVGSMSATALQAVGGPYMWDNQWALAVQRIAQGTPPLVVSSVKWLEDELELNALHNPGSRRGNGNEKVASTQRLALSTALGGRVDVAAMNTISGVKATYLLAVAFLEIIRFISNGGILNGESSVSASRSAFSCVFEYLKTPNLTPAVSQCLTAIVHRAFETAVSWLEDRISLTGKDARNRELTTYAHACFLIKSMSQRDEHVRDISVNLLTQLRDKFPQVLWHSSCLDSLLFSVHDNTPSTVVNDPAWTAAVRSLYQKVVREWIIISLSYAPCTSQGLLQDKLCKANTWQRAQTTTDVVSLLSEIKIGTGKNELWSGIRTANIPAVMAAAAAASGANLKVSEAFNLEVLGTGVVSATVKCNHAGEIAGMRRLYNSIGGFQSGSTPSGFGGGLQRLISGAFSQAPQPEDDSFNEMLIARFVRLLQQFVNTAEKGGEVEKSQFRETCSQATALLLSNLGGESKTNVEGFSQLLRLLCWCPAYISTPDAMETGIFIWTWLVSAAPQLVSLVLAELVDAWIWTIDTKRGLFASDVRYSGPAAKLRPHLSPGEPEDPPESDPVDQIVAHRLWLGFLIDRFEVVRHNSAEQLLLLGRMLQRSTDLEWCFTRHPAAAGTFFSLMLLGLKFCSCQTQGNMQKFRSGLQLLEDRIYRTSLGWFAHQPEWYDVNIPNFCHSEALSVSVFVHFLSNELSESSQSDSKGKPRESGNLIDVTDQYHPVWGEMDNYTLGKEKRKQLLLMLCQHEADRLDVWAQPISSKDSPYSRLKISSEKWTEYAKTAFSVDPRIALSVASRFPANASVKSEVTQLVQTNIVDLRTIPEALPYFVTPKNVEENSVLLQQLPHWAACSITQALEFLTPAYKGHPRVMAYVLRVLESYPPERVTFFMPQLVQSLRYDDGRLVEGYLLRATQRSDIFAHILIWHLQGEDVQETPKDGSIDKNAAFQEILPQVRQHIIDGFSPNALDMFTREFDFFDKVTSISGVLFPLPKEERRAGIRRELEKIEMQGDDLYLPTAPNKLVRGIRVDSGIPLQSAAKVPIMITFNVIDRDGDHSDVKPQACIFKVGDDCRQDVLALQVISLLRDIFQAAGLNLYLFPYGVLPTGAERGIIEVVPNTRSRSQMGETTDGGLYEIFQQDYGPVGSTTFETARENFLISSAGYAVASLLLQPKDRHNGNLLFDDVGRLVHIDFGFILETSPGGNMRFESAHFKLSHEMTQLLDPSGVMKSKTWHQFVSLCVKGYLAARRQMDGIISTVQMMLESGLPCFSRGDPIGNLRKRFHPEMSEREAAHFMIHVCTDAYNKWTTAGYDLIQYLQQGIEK
UniProt Q9FMI8: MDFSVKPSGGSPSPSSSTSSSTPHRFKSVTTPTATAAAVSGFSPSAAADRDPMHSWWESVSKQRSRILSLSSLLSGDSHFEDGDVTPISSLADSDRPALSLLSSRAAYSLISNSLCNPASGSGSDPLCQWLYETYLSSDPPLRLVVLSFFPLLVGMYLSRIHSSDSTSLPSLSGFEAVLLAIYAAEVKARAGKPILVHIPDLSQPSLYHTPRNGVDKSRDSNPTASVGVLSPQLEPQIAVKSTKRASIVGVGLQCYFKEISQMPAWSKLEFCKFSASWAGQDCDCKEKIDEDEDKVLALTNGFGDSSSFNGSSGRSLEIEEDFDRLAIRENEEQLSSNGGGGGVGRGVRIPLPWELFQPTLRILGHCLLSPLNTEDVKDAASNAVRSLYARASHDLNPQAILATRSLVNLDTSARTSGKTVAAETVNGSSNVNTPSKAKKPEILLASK

Assay [1] addresses T1, NPGR2-mCITRINE (Arabidopsis thaliana) (UniProt Q66GN3).
T1 sequence: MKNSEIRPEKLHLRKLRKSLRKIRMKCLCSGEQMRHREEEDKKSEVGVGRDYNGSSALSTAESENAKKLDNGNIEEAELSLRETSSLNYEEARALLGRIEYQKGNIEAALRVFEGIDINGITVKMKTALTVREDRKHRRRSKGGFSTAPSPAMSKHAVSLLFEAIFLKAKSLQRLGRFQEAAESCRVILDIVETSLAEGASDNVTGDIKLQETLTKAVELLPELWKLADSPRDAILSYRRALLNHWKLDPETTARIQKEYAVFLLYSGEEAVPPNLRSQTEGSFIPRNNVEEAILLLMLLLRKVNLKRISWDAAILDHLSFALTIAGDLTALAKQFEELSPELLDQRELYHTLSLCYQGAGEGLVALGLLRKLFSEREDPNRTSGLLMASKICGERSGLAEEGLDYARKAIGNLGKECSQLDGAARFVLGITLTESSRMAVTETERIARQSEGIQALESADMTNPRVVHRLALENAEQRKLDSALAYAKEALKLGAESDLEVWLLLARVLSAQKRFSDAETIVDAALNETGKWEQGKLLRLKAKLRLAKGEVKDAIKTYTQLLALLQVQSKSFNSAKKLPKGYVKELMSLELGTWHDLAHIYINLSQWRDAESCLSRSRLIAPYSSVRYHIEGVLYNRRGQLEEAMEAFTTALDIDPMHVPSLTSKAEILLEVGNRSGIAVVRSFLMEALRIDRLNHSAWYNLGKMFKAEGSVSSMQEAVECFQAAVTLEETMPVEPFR
Description: affinity purification with mass spectrometry.

For assay [2], the target named is mCITRINE-PI4Kα1 (Arabidopsis thaliana) (UniProt Q9SXA1). Description: affinity purification with mass spectrometry.

No constants are given. Whether binding was seen depends on the method and setting. In cells and extracts the contact can be indirect. Here binding means that the protein was enriched with, or labelled near, the bait; the list need not be complete.

As to “HYCCIN-CONTAINING2 (HYC2), endogenous (from UniProt Q9FMI8)”, the binding result in assay [1] and in assay [2] was “binds” throughout.

As for “PI4Kα1, endogenous (from UniProt Q9SXA1 1-2028) (enzyme)”, in assay [1], the binding result is “binds”.
